Reference: PMC12040169 (PLOS Biology, 2025)
The list shows a part of the results.

test system: T1, CTL2-GFP (C. trachomatis L2/434/Bu, GFP-expressing); set-up: species or system HeLa; Intracellular C. trachomatis growth in HeLa cells, bulk GFP fluorescence relative to DMSO; conditions: bulk GFP, single well; 28.5 h, 10 µM; inhibitor
T1 construct: L2/434/Bu, GFP-expressing

Row | Structure (SMILES) | % of control remaining
1 | Cc1cc2cc(CNc3cc(-c4ccccc4)ccc3O)c(=O)[nH]c2cc1C [CBK286164] | 130.944%
2 | COc1ccc(N2Cc3ccccc3C2=O)cc1OC [CBK113666] | 143.016%
3 | Oc1ccc(C2N(O)C3CCCCC3N2O)cc1 (centres unmarked) [CBK261715] | 123.076%
4 | O=C(NCc1ccc2occc2c1)C1(c2ccccc2)CCCC1 [CBK149525] | 71.3215%
5 | Cc1ccccc1-c1ccc(C(=O)Nc2ccc3c(c2)OCO3)c(N2CCN(C(=O)c3ccco3)CC2)n1 [CBK076196] | 83.6042%
6 | O=C(Nc1cccc2c1CCCC2)c1cnc2n(c1=O)CCS2 [CBK287379] | 117.487%
7 | COc1ccccc1CN(Cc1cccnc1)C(=O)c1cnc(C)cn1 [CBK306972] | 124.626%
8 | CC1CC1C(=O)NCCN1CCC(O)(c2cccc(F)c2)CC1 (centres unmarked) [CBK283286] | 146.126%
9 | COCC(=O)N1CCc2sccc2C1c1ccc(NC(=O)c2ccco2)cc1 (centres unmarked) [CBK286200] | 109.989%
10 | Clc1ccccc1-c1nsc(Nc2ccccc2)n1 [CBK016152] | 64.2576%
11 | CC(C)Nc1nc2ccccc2nc1Sc1ccncc1 [CBK115250] | 128.895%
12 | O=C(OCCC1SC(NC2CC3C=CC2C3)=NC1=O)c1c(F)cccc1F (centres unmarked) [CBK200057T] | 134.67%
13 | CCOC(=O)/C(C(=O)c1ccccc1)=C(/N)NCCO [CBK265621] | 119.852%
14 | CCN1c2ccc(-c3cncn3CCCn3ccnc3C)cc2CC1C (centres unmarked) [CBK281924] | 145.18%
15 | CCOC(=O)C1(Cc2cc(-c3cccc(F)c3)no2)CCCNC1 (centres unmarked) [CBK284578] | 122.34%
16 | CN(C(=O)[C@H]1CCCC[C@H]1C(=O)O)C1CCS(=O)(=O)C1 (some centres unmarked) [CBK286782] | 124.335%
17 | CC1CN(C(=O)/C=C/C(=O)O)c2ccccc2NC1=O (centres unmarked) [CBK286618] | 104.428%
18 | O=C1CC2(C(=O)N1CCC1CCCCC1)C(=O)N(Cc1ccccc1)c1ccc(F)cc12 (centres unmarked) [CBK075175] | 184.056%
19 | O=C(CC1(O)C(=O)N(Cc2ccccc2)c2ccccc21)c1cc2ccccc2oc1=O (centres unmarked) [CBK293963] | 176.427%
20 | Clc1ccc(COc2ccnc(N3CCCN(CC4CC4)CC3)n2)cc1Cl [CBK083963] | 146.272%
21 | Cc1ncsc1CCOc1ccc(C(F)(F)F)cn1 [CBK115790] | 131.545%
22 | CCC(Oc1ccccc1C)C(=O)Nc1ccccc1C(=O)N(C)C (centres unmarked) [CBK270144] | 113.911%
23 | Cc1ccnc2nc(C(=O)OC(C)C(=O)N3CCCC3)nn12 (centres unmarked) [CBK306089] | 107.576%
24 | Cn1nccc1CN1CCCC(Cc2nc3ccccc3[nH]2)C1 (centres unmarked) [CBK281892] | 104.482%
25 | O=C(Nc1ccc(-c2ccc(F)cc2)cc1)c1ccc(N2C(=O)CCC2=O)cc1 [CBK285683] | 109.637%
26 | O=C(NCc1ccc(OC(F)(F)F)cc1)c1cnoc1-c1ccc(Br)cc1 [CBK154885] | 119.272%
27 | CCCC/C=C/c1cnc(Nc2ccc(N3CCOCC3)cc2)c2nccn12 [CBK091239] | 135.897%

Single entries from the list.
Under % of control remaining, `O=C(NCc1ccc(OC(F)(F)F)cc1)c1cnoc1-c1ccc(Br)cc1` [CBK154885] is entered as 119.272%
Under % of control remaining, `CCOC(=O)/C(C(=O)c1ccccc1)=C(/N)NCCO` [CBK265621] is entered as 119.852%

2 compounds picked at random from those above:
Row | Structure (SMILES) | % of control remaining
26 | O=C(NCc1ccc(OC(F)(F)F)cc1)c1cnoc1-c1ccc(Br)cc1 [CBK154885] | 119.272%
13 | CCOC(=O)/C(C(=O)c1ccccc1)=C(/N)NCCO [CBK265621] | 119.852%

Carrying on.

Row | Structure (SMILES) | % of control remaining
28 | COc1cccc(CNc2nccnc2-c2cccs2)c1OC [CBK036784] | 219.781%
29 | CC(C)(C)C(=O)NCCCC(=O)Nc1nc2ccc(Oc3ccccc3)cc2s1 [CBK296652] | 95.1346%
30 | Cc1cccc([C@@H]2CN(Cc3ccccc3)C[C@]23CCCC(=O)N3)n1 [CBK283350] | 90.7457%
31 | COc1ccc(OCCNC(=O)c2ccc(-c3ccc(C(C)=O)s3)nc2N(C)C(C)=O)cc1 [CBK076576] | 106.467%
32 | O=C(Cc1c[nH]c2ccccc12)N1CCC2(CCCN(CCO)C2)C1 (centres unmarked) [CBK132045] | 164.798%
33 | O=C(Nc1cccc(F)c1)N(CCO)Cc1cccnc1 [CBK304860] | 99.5447%
34 | CCN(CC)CCNC(=O)c1ccc(/C=N/O)nc1 [CBK288375] | 132.618%
35 | Cc1c(Cl)cccc1NC(=O)c1cnc2sccn2c1=O [CBK246518] | 104.711%
36 | O=C(CSc1nnc(-c2ccncc2)n1C1CCCCC1)Nc1ncc2c(n1)CC(c1ccccc1)CC2=O (centres unmarked) [CBK266177] | 194.569%
37 | CN1CCC[C@H]1C(=O)Nc1ccc2[nH]ccc2c1 [CBK159699] | 109.031%
38 | O=C(OCc1ccccc1)Oc1cncc(C(=O)O)c1 [CBK262053] | 100%
39 | COc1ccc(-c2nc3c(c(SCC(=O)O)n2)COC(C)(C)C3)cc1 [CBK286704] | 118.747%
40 | O=C1C[C@@H]2CCN(C(=O)Nc3cccc(C(F)(F)F)c3)C[C@@H]2CCN1CCc1c[nH]cn1 [CBK288786] | 74.2504%
41 | COc1ccc(-c2ccc(Nc3cccc(N(C)C)c3)nc2)cc1OC [CBK037606] | 103.638%
42 | CC(C)(C)C(=O)CN1CCC2(CC1)NCCc1c2[nH]c2cc(F)ccc12 [CBK039568] | 154.911%
43 | COc1ccc(S(=O)(=O)N2CC[C@H]3NC(=O)N(c4ccc(C(C)C)cc4)C(=O)[C@H]32)cc1 [CBK289290] | 105.483%
44 | O=S(=O)(O)c1cc(O)c2c(/N=N/c3c(S(=O)(=O)O)cc4cc(S(=O)(=O)O)cc(O)c4c3O)cc(S(=O)(=O)O)cc2c1 [CBK260934] | 87.2393%
45 | O=C1CCC(=O)N1CCN1C(=O)C2(CC(=O)N(Cc3ccccc3)C2=O)c2ccccc21 (centres unmarked) [CBK075705] | 176.042%
46 | Cc1cc(C)c(OCCNC(C)(C)C)c(Cl)c1 [CBK262713C] | 119.997%
47 | Cc1ccc(S(=O)(=O)N(C)c2ccnc(N3CCN(C)CC3)n2)cc1 [CBK000671] | 106.312%
48 | CC(C)n1nccc1C(=O)NCC(c1ccccc1F)N1CCCC1 (centres unmarked) [CBK283032] | 114.587%
49 | COCCN(C(=O)c1[nH]c2c(F)cccc2c1C)C1CCN(C)CC1 [CBK307386] | 112.466%
50 | CN1CCN(C(=O)c2cc(Br)cnc2NCCOc2ccccc2)CC1 [CBK076231] | 143.081%
51 | CC1SC2(C(=O)Nc3ccccc32)N(c2ccc(Oc3ccccc3)cc2)C1=O (centres unmarked) [CBK103750] | 107.873%
52 | CCOC(=O)C1=C(C)N(CC)C(=O)NC1c1cc(OC)c(OC)c(OC)c1 (centres unmarked) [CBK091912] | 138.065%
53 | CC1CN(CCCCNCc2cn(C)nc2-c2cccnc2)CC(C)O1 (centres unmarked) [CBK304453] | 96.9951%
54 | O=C1OCCN1C1CCN(S(=O)(=O)c2cccs2)CC1 [CBK043313] | 102.552%

Row | Structure (SMILES) | % of control remaining
55 | COCc1cc(C[C@H]2CNCC[C@H]2CC(=O)N2CCCCC2)no1 [CBK288899] | 122.485%
56 | O=C(c1ccc2[nH]ccc2c1)N1CCc2ccccc21 [CBK200269] | 137.955%
57 | Cc1ccc(OCC(=O)NC(Cc2ccccc2)C(=O)O)cc1 (centres unmarked) [CBK217681] | 103.774%
58 | Nc1c(-c2ccsc2)cnc2cccnc12 [CBK081208] | 132.801%
59 | CC(C)c1[nH]c2ncccc2c1CN1CCSCC1 [CBK285312] | 135.415%
60 | COc1ccccc1-c1nc(C2CCCN2C(=O)CCCC(=O)O)n2ccccc12 (centres unmarked) [CBK046600] | 143.202%
61 | O=c1ccc2c(-c3cccc(OCc4ccccc4)c3)ccnc2[nH]1 [CBK073739] | 89.899%
62 | CN(C)CCN(C)c1cc(-c2cccc(Br)c2)nc2ccnn12 [CBK037140] | 111.453%
63 | COC(=O)c1c(NC(=O)C2CC(=O)NN2C)sc2c1CCC2 (centres unmarked) [CBK269218A] | 171.828%
64 | COc1ccc(CCN2CCC(Oc3nccnc3OCCN3C(=O)CCC3=O)CC2)cc1OC [CBK084359] | 120.628%
65 | CCCC/C=C/c1nccnc1NCc1ccncc1 [CBK037500] | 87.8093%
66 | O=C(O)COc1ccc(S(=O)(=O)N2CCCc3ccccc32)cc1 [CBK269935] | 90.1518%
67 | O=C(O)CS(=O)(=O)c1ccccc1C(=O)O [CBK261083] | 100%
68 | FC(F)(F)c1cccnc1OCCNc1ccccc1 [CBK115822] | 112.465%
69 | O=C(NCCCC1CCOC1)c1cnn(-c2ccc(F)cc2)c1 (centres unmarked) [CBK283288] | 113.351%
70 | Cc1cnc(NC(=O)N2CCOC(c3ccc(F)cc3F)C2)s1 (centres unmarked) [CBK304126] | 103.001%
71 | Brc1cn2c(-c3ccccc3)cnc2c(N2CCCC2)n1 [CBK091488] | 91.9518%
72 | N#Cc1nc(/C=C/c2cccs2)oc1NCCCn1ccnc1 [CBK269455] | 124.884%
73 | N#Cc1ccccc1CSc1nc(N)cc(O)n1 [CBK267967] | 130.535%
74 | Cc1cc(NC(=O)CN2CCN(c3ccc(F)cc3)CC2)nc2c1c(=O)oc1ccccc12 [CBK291232] | 132.24%
75 | Cc1ccccc1OCCn1c(=N)n(CC(C)C)c2ccccc21 [CBK265392B] | 103.577%
76 | CC(=O)Nc1cccc(NC(=O)c2cc(-c3ccccc3)nn2-c2ccccc2)c1 [CBK296997] | 137.552%
77 | CCOC(=O)N1CCC(NS(=O)(=O)c2cc(Br)c(Cl)s2)CC1 [CBK045472] | 127.657%
78 | COc1cc(CNCC2CCCO2)cc(Cl)c1OCC(N)=O (centres unmarked) [CBK270238C] | 128.803%
79 | CN1CC=C(/C=C/c2c[nH]c3ccccc23)CC1 [CBK283602] | 161.128%
80 | CCc1nn(CC(=O)N(CC)CC)c(=O)c2cc3oc(C)cc3n12 [CBK283583] | 130.2%
